Here are results for 39 compounds from PubChem BioAssay AID493014 (National Center for Advancing Translational Sciences (NCATS), 2011).

A short description of this assay: qHTS Assay to Find Inhibitors of Chronic Active B-Cell Receptor Signaling. Particulars: ABC-DLBCL IkBa-CBG/CBR reporter, luminescence ratio (green luciferase fused to IkBa over red control in TMD8 lymphoma cells), 4 h. In short, it runs like this: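 Concentration-response series (up to 46 uM) were applied to TMD8 dual-reporter cells for 4 h at 37C with doxycycline. Green/red ratio, after filter-overlap correction, defined %Activity; red signal alone was normalised to basal cells and zero luminescence.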
In general terms: In qHTS, concentration-response curves come from the screen itself.

Where [1] appears, read: measured here: CBR red luminescence, cell number.
Setting [2] is: measured here: IkBa-CBG green luminescence.

Each structure is given as a SMILES string. Values joined by “and” are separate entries in the source; they are usually repeats but may differ in a detail not shown here. Equal entries are not always repeated. The list shows a part of the results. The main result of the screen is listed elsewhere. These columns were measured beside it and carry no call. The list favours compounds with an active or inconclusive main result. Potencies come from curve fits of mixed quality, noted in brackets.

For the compound `C(=N\Nc1nccc(-c2cccnc2)n1)/c1ccccc1`, the AC50 (as a rule, the concentration at which the activity in the assay is half-maximal) under setting [1] is 6.31 µM [falling, partial curve, poor fit].
Same read-out and setting: to `N#Cc1cnn(Cc2ccccc2)c1/N=C/N1CCOCC1` belongs 1.84 µM [rising, partial curve, poor fit]; to `Cc1ccc(NC(=O)CSC(N)=O)cc1Cl`, 7.08 µM [falling, partial curve, poor fit].
On the same count and under the same terms, to `CCCCc1ccc(NC(=O)c2ccc(NS(C)(=O)=O)cc2)cc1` belongs 20 µM [falling, single point]; to `CCOC(=O)C1=C(COC(=O)Cc2c(F)cccc2Cl)NC(=O)NC1C` (configuration not stated), 29.1 µM [rising, single point]; to `COc1ccc2c(Cl)c(C(=O)NCc3ccco3)sc2c1`, 4.61 µM [rising, partial curve, poor fit].
As for `c1ccc2ncc(-n3cnnn3)cc2c1`, under setting [2], the AC50 is 32.6 µM [falling, partial curve, poor fit].
For the compound `COc1cccc(N=Nc2c(N)[nH]n3c(=O)c4c(nc23)CCCC4)c1`, the AC50 under setting [1] is 1.26 µM [falling, full curve, poor fit].
`CC(=O)Nc1ccc(NC(=O)Nc2ccccc2C)cc1`: the half-maximal activity concentration (AC50) under setting [1] is 3.55 µM [falling, partial curve, poor fit].
`O=C(Nc1cccc(-c2nc3ccccc3[nH]2)c1)c1cccc(NC(=O)c2ccco2)c1`: the AC50 under setting [1] is 4.11 µM [falling, partial curve].
The same measure, in the same setting: to `O=C(NC(=O)c1ccccc1)Nc1ccccn1` belongs 1.41 µM [falling, partial curve].
As for `CCOc1ccc(N(Cc2ccc(C(=O)O)cc2)S(=O)(=O)c2ccc(C)cc2)cc1`, the AC50 is, setting by setting: under setting [1], 35.5 µM [rising, single point]; under setting [2], 35.5 µM [falling, single point].
Consider `COc1ccc(OC)c(-n2c(SCC(=O)Nc3cc(C)on3)nnc2-c2c[nH]c3ccccc23)c1`, for which the concentration at half-maximal activity (AC50) under setting [1] is 6.51 µM [falling, full curve, poor fit].
On the same count and under the same terms, to `COC(=O)c1ccc(NC(=O)CCOc2ccccc2)cc1` belongs 7.94 µM [rising, partial curve]; to `Cn1c2ccc(F)cc2c2ncn(Cc3ccco3)c(=O)c21`, 29.1 µM [falling, single point]; to `CC(=O)N1CCC(=NNc2nc3ccccc3[nH]2)CC1`, 35.5 µM [falling, single point].
As for `Cc1cccc(Nc2nc(N)nc(-c3oc4ccccc4c3C)n2)c1`, the concentration at half-maximal activity (AC50) was 3.55 µM [falling, full curve] under setting [1] and 3.98 µM [rising, full curve, poor fit] under setting [2].
As to `Cc1[nH]n(C(N)=S)c(=O)c1N=Nc1ccc([N+](=O)[O-])cc1Cl`, the AC50 under setting [2] is 5.01 µM [falling, partial curve, poor fit].
Turning to `O=C(c1ccc(Cl)c(Cl)c1)N(Cc1ccco1)c1ccc(O)cc1`, under setting [1], the AC50 is 23.1 µM [falling, partial curve, poor fit].
Still for that read-out and setting: to `CCOC(=O)c1sc(NC(=O)COC(=O)CNC(=O)c2ccco2)c(C(=O)OCC)c1C` belongs 5.8 µM [rising, partial curve, poor fit]; to `CN1CCC(=C2c3ccccc3CC(=O)c3sccc32)CC1`, 14.6 µM [falling, partial curve, poor fit] and 25.1 µM [falling, single point]; to `CCC(=O)N(C1=C(NC(C)C)C(=O)c2ccccc2C1=O)C(C)C`, 35.5 µM [falling, single point].
Same read-out and setting: to `O=C(c1cc(N2C(=O)C3C4CCC(C4)C3C2=O)ccc1Cl)N1CCN(c2ccc(F)cc2)CC1` (configuration not stated) belongs 6.51 µM [rising, partial curve, poor fit]; to `Cc1ccc(/C=c2\s/c(=C(/C#N)C(=O)N3CCCC3)n(Cc3ccco3)c2=O)s1`, 18.4 µM [falling, single point]; to `O=C(NC1CCCc2ccccc21)c1ccc([N+](=O)[O-])cc1` (configuration not stated), 0.158 µM [falling, partial curve, poor fit].
Still for that read-out and setting: to `Cc1c(C#N)c2ccccc2n1CC(=O)NCCc1c[nH]c2ccccc12` belongs 2.51 µM [falling, single point].
Consider `COc1ccc(-c2sc3cc4c(cc3c2C#Cc2ccc(N)cc2)OCO4)cc1`, for which the AC50 under setting [1] was 29.1 µM [rising, single point].
The same measure, in the same setting: to `O=C(COC(=O)c1ccc(-c2cnc3ccccc3n2)cc1)c1ccccc1` belongs 2.06 µM [rising, partial curve, poor fit].
Same read-out and setting: to `CCOc1cccc2sc(N(CCCN(C)C)C(=O)Cc3ccccc3)nc12` belongs 35.5 µM [falling, single point]; to `Cc1ccc(CN2CC(C(=O)NCCCSc3ccccc3)CC2=O)cc1` (configuration not stated), 2.82 µM [rising, single point]; to `COC(=O)c1cc2n(n1)CCN(Cc1ccc(C)cc1)C2=O`, 29.1 µM [rising, single point].
On the same count and under the same terms, to `O=C(COc1ccc(S(=O)(=O)Nc2cccc(C(F)(F)F)c2)cc1)N1CCOCC1` belongs 3.55 µM [falling, full curve, poor fit].
In the case of `CCCn1nnnc1NC(=O)c1ccc2ccccc2c1`, the AC50 was 25.9 µM [rising, single point] under setting [1] and 20.6 µM [falling, single point] under setting [2].
Regarding `CCN(CCCNC(=O)CN1N=C(c2ccc(C)cc2)CCC1=O)c1ccccc1`, under setting [1], the AC50 was 35.5 µM [falling, single point].
On the same count and under the same terms, to `O=C(CNC(=O)c1ccco1)NCC(c1ccco1)N1CCCCC1` (configuration not stated) belongs 0.103 µM [rising, full curve, poor fit].
Consider `CC(C)c1ccc(NC(=O)C2C3C=CC4(O3)C2C(=O)N(CCN2CCOCC2)C4C(=O)NC2CCCCC2)cc1` (configuration not stated), for which the AC50 under setting [1] was 11.2 µM [rising, partial curve, poor fit].
On the same count and under the same terms, to `COc1ccc(C(C)=O)c(OC(=O)c2ccc(OC)c(OC)c2)c1` belongs 23.1 µM [rising, single point]; to `O=C(COC(=O)c1ccco1)Nc1ccc2[nH]c(=O)[nH]c2c1`, 29.1 µM [rising, single point]; to `CC1CC(=O)c2cnc(Nc3cccc(C(F)(F)F)c3)nc2C1` (configuration not stated), 0.251 µM [rising, full curve, poor fit].
